PubChem BioAssay AID743454 | Peter MacCallum Cancer Centre, 2014

- Test: 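Genes whose loss kills vorinostat-resistant colon cancer cells under vorinostat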 (primary screen)
- System: human HCT116-VR colon cancer cells, selected for vorinostat resistance
- Knock-down reagent: siRNA pool against human genes, 40 nM siRNA pool
- Duration: vorinostat for 24 h, read-out about 72 h after transfection
- Conditions: vorinostat at 2.5 µM final
- Read-out: 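Two measures, CellTiter-Fluor viability and luminescent caspase 3/7 activity, each as fold change against same-plate mock wells, mean of duplicates, then screen-wide robust z-score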
- Reading the numbers: viability robust z-score: higher = more viable cells than screen typical; caspase robust z-score: higher = more caspase 3/7 activity than screen typical
- Hit rule: 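a knock-down is a hit when classed RV1 or RV2 for lowered viability, or CA1 or CA2 for caspase activation; those lethal without drug were dropped; hits were retested singly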
In all, the deposit lists about 18,000 reagents; below is a part drawn at random. Of all reagents, 450 (2.5%) are marked active. 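Single biological run; no consistent viability z cut-off exists, so the class columns, not z-scores, define the calls.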 No sequences are given here.

The opening 2 records, to show the layout:
Target gene	PubChem SID	viability hit class	caspase hit class	viability robust z-score	caspase robust z-score	activity call
TMEM139	SID134320770	no change	no change	-0.15	1.86	inactive
NFYA	SID134313982	no change	CA1 (caspase activation)	-0.99	6.4	active

The listing, repeating the preview:
Target gene	PubChem SID	viability hit class	caspase hit class	viability robust z-score	caspase robust z-score	activity call
TMEM139	SID134320770	no change	no change	-0.15	1.86	inactive
NFYA	SID134313982	no change	CA1 (caspase activation)	-0.99	6.4	active
PTCH1	SID135620758	no change	no change	-0.06	2.69	inactive
MINK1	SID152155809	no change	no change	-1.06	-0.29	inactive
NNT	SID152150133	no change	no change	-2.06	2.23	inactive
MXI1	SID135621868	no change	no change	1.08	0.03	inactive
LRRTM2	SID152152490	no change	no change	-0.68	-1.06	inactive
ARL15	SID134324069	no change	no change	0.88	-0.9	inactive
KANK3	SID135625010	no change	no change	-0.3	-0.54	inactive
SPMIP5	SID134319733	no change	no change	-0.62	0.06	inactive
MOGAT3	SID134310704	no change	no change	-0.51	2.4	inactive
ABCB10	SID134312348	no change	no change	-0.24	-0.95	inactive
SEC24C	SID135621572	no change	no change	0.2	-0.53	inactive
SP2	SID134319970	no change	no change	0.12	-0.71	inactive
APOL3	SID135622524	no change	no change	1.21	1.16	inactive
DMAC1	SID152152710	no change	no change	0.47	-0.61	inactive
NTPCR	SID134311979	no change	no change	-0.24	-0.41	inactive
CEP170	SID135624161	no change	no change	-0.08	-0.4	inactive
RNLS	SID152150797	no change	no change	0.88	2.09	inactive
TM4SF18	SID135623165	no change	no change	0.16	-0.73	inactive
TAAR2	SID152154037	no change	no change	-0.07	-0.13	inactive
AP1M2	SID134316354	no change	no change	-0.3	-0.68	inactive
CDC42SE1	SID135622612	no change	no change	-0.82	0.39	inactive
